# From article PMC8971729
# Chains of the proteins cited; added tags and fusions are not shown. Residues count along the entry.
# UniProt P78310, residues 20-365: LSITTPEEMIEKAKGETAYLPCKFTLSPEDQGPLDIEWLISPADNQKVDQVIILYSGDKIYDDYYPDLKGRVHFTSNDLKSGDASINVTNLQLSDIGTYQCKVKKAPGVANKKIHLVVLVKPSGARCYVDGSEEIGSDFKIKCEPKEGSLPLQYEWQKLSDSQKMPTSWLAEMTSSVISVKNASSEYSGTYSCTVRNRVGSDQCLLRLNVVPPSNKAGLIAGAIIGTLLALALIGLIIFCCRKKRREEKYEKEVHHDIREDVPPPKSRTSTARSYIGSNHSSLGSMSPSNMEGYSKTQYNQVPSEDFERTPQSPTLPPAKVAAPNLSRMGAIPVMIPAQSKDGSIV
# These are yes or no findings as the source states them, for the method shown. Some entries that bind do so weakly or less than the wild type.
# Biological target: CAR on CHO-CAR cells (UniProt P78310)
# Assay: flow cytometry on cells; CHO-CAR cells with serial dilutions of knob protein (0.0001-100 ug/10^5 cells) for 1 h on ice, washed, then stained for CAR with anti-CAR (RmcB) and a labelled secondary antibody; IC50 by non-linear regression; apparent; only the binder purified
binder,measurement,value
"HAdV-C5 fiber knob protein (domain or fragment, UniProt P11818 394-581) KNNDKLTLWTTPAPSPNCRLNAEKDAKLTLVLTKCGSQILATVSVLAVKGSLAPISGTVQSAHLIIRFDENGVLLNNSFLDPEYWNFRNGDLTEGTAYTNAVGFMPNLSAYPKSHGKTAKSNIVSQVYLNGDKTKPVTLTITLNGTQETGDTTPSAYSMSFSWDWSGHNYINEIFATSSYTFSYIAQE",binding,binds
